In patent US10563263B2, “Genetic polymorphisms associated with statin response and cardiovascular diseases, methods of detection and uses thereof” (CELERA CORPORATION, priority 2010, dated 2020):
The source gives many values for each of these; only a part stands here.

Tested on: revascularization, unstable angina requiring hospitalization, MI, all causes of death, or stroke
Test: PROVE IT-TIMI 22: SNP by treatment interaction (high-dose atorvastatin vs standard-dose pravastatin), logistic regression (synergy index), primary composite endpoint
Type: in vivo, human

CC(C)c1c(C(=O)Nc2ccccc2)c(-c2ccccc2)c(-c2ccc(F)cc2)n1CC[C@@H](O)C[C@@H](O)CC(=O)O [Atorvastatin, atorvastatin]
OR (rs2095606, allele A, DOM, Imputed, PROVE-IT, vs pravastatin): 0.9481
OR (rs2102374, allele A, ADD, Imputed, PROVE-IT, vs pravastatin): 1.135
OR (rs2102374, allele A, DOM, Imputed, PROVE-IT, vs pravastatin): 1.187
OR (rs2108426, allele C, DOM, Imputed, PROVE-IT, vs pravastatin): 0.5934
OR (rs2108426 allele C (A1), DOM, Imputed, atorvastatin vs pravastatin): 0.5934
OR (rs2110664, allele A, DOM, Imputed, PROVE-IT, vs pravastatin): 1.47
OR (rs2110664 allele A (A1), DOM, Imputed, atorvastatin vs pravastatin): 1.47
OR (rs2132242, allele A, ADD, Imputed, PROVE-IT, vs pravastatin): 0.7679
OR (rs2132242, allele A, DOM, Imputed, PROVE-IT, vs pravastatin): 0.6978
OR (rs2132242 allele A (A1), DOM, Imputed, atorvastatin vs pravastatin): 0.6978
OR (rs2151644 allele T (A1), DOM, Imputed, atorvastatin vs pravastatin): 1.184
OR (rs2158958, allele A, DOM, Imputed, PROVE-IT, vs pravastatin): 0.5934
OR (rs2158958 allele A (A1), DOM, Imputed, atorvastatin vs pravastatin): 0.5934
OR (rs2158961, allele G, DOM, Imputed, PROVE-IT, vs pravastatin): 0.6399
OR (rs2158961 allele G (A1), DOM, Imputed, atorvastatin vs pravastatin): 0.6399
OR (rs2163046, allele A, DOM, Imputed, PROVE-IT, vs pravastatin): 1.529
OR (rs2164099 allele G (A1), ADD, Imputed, atorvastatin vs pravastatin): 1.075
OR (rs2173254 allele G (A1), REC, Imputed, atorvastatin vs pravastatin): 1.019
OR (rs2180286, allele G, DOM, Imputed, PROVE-IT, vs pravastatin): 0.587
OR (rs2180684, allele A, DOM, Imputed, PROVE-IT, vs pravastatin): 1.876
OR (rs2188079, allele C, ADD, Imputed, PROVE-IT, vs pravastatin): 1.028
OR (rs2188079 allele C (A1), ADD, Imputed, atorvastatin vs pravastatin): 1.028
OR (rs2190304 allele G (A1), REC, Imputed, atorvastatin vs pravastatin): 1.465
OR (rs2190597 allele T (A1), DOM, Imputed, atorvastatin vs pravastatin): 0.6496
OR (rs2190598, allele T, DOM, Imputed, PROVE-IT, vs pravastatin): 0.5934
OR (rs2190598 allele T (A1), DOM, Imputed, atorvastatin vs pravastatin): 0.5934
OR (rs2190600, allele A, DOM, Imputed, PROVE-IT, vs pravastatin): 0.577
OR (rs2190600 allele A (A1), DOM, Imputed, atorvastatin vs pravastatin): 0.577
OR (rs2218084 allele T (A1), REC, Imputed, atorvastatin vs pravastatin): 2.942
OR (rs2224184, allele T, DOM, Genotyped, PROVE-IT, vs pravastatin): 0.587
OR (rs2243860 allele A (A1), REC, Imputed, atorvastatin vs pravastatin): 1.553
OR (rs2246564 allele T (A1), DOM, Imputed, atorvastatin vs pravastatin): 1.177
OR (rs2248236, allele C, ADD, Imputed, PROVE-IT, vs pravastatin): 0.6625
OR (rs2248236, allele C, DOM, Imputed, PROVE-IT, vs pravastatin): 0.5404
OR (rs2248236 allele C (A1), DOM, Imputed, atorvastatin vs pravastatin): 0.5404
OR (rs2250340 allele T (A1), DOM, Imputed, atorvastatin vs pravastatin): 1.184
OR (rs2257192 allele G (A1), DOM, Imputed, atorvastatin vs pravastatin): 1.177
OR (rs2265733, allele C, ADD, Imputed, PROVE-IT, vs pravastatin): 1.135
OR (rs2265733, allele C, DOM, Imputed, PROVE-IT, vs pravastatin): 1.187
OR (rs2270584, allele A, ADD, Imputed, PROVE-IT, vs pravastatin): 0.7517
OR (rs2270584, allele A, DOM, Imputed, PROVE-IT, vs pravastatin): 0.6747
OR (rs2270584 allele A (A1), DOM, Imputed, atorvastatin vs pravastatin): 0.6747
OR (rs2270586, allele A, ADD, Imputed, PROVE-IT, vs pravastatin): 0.7586
OR (rs2270586, allele A, DOM, Imputed, PROVE-IT, vs pravastatin): 0.6883
OR (rs2270586 allele A (A1), DOM, Imputed, atorvastatin vs pravastatin): 0.6883
OR (rs2270589 allele A (A1), ADD, Imputed, atorvastatin vs pravastatin): 0.6468
OR (rs2270589 allele A (A1), DOM, Imputed, atorvastatin vs pravastatin): 0.5799
OR (rs2296889 allele C (A1), DOM, Imputed, atorvastatin vs pravastatin): 0.9005
OR (rs2301346 allele C (A1), ADD, Imputed, atorvastatin vs pravastatin): 1.001
OR (rs2301346 allele C (A1), DOM, Imputed, atorvastatin vs pravastatin): 1.026
OR (rs2317057, allele T, ADD, Imputed, PROVE-IT, vs pravastatin): 0.5936
OR (rs2322101, allele A, REC, Imputed, PROVE-IT, vs pravastatin): 2.67
OR (rs2327929, allele G, REC, Imputed, PROVE-IT, vs pravastatin): 1.411
OR (rs2327929 allele G (A1), REC, Imputed, atorvastatin vs pravastatin): 1.411
OR (rs2332844, allele A, ADD, Imputed, PROVE-IT, vs pravastatin): 1.301
OR (rs2332844, allele A, REC, Imputed, PROVE-IT, vs pravastatin): 1.427
OR (rs2349170, allele G, DOM, Imputed, PROVE-IT, vs pravastatin): 1.414
OR (rs2356722, allele G, DOM, Imputed, PROVE-IT, vs pravastatin): 1.255
OR (rs2357486 allele C (A1), REC, Imputed, atorvastatin vs pravastatin): 0.8855
OR (rs2364956, allele T, ADD, Imputed, PROVE-IT, vs pravastatin): 1.168
OR (rs2373793, allele G, DOM, Imputed, PROVE-IT, vs pravastatin): 1.599
OR (rs2373793 allele G (A1), DOM, Imputed, atorvastatin vs pravastatin): 1.599
OR (rs2377622 allele T (A1), REC, Imputed, atorvastatin vs pravastatin): 0.2954
OR (rs2383903, allele G, DOM, Imputed, PROVE-IT, vs pravastatin): 0.7568
OR (rs2383903 allele G (A1), DOM, Imputed, atorvastatin vs pravastatin): 0.7568
OR (rs2387945, allele G, DOM, Imputed, PROVE-IT, vs pravastatin): 1.747
OR (rs2389863, allele A, DOM, Imputed, PROVE-IT, vs pravastatin): 0.5655
OR (rs2389866 allele C (A1), DOM, Imputed, atorvastatin vs pravastatin): 0.5404
OR (rs2389869 allele C (A1), DOM, Imputed, atorvastatin vs pravastatin): 0.5404
OR (rs2418541 allele A (A1), DOM, Imputed, atorvastatin vs pravastatin): 0.593
OR (rs2418542 allele A (A1), DOM, Imputed, atorvastatin vs pravastatin): 0.593
OR (rs2418548 allele C (A1), DOM, Imputed, atorvastatin vs pravastatin): 0.6036
OR (rs2476976 allele C (A1), DOM, Imputed, atorvastatin vs pravastatin): 1.391
OR (rs2483639 allele A (A1), DOM, Imputed, atorvastatin vs pravastatin): 1.177
OR (rs2483640 allele A (A1), DOM, Imputed, atorvastatin vs pravastatin): 1.177
OR (rs2544780 allele T (A1), REC, Imputed, atorvastatin vs pravastatin): 3.054
OR (rs2586458 allele T (A1), DOM, Imputed, atorvastatin vs pravastatin): 1.439
OR (rs2593272 allele G (A1), ADD, Imputed, atorvastatin vs pravastatin): 0.9033
OR (rs2593273 allele T (A1), ADD, Imputed, atorvastatin vs pravastatin): 0.9769
OR (rs2622499 allele G (A1), DOM, Imputed, atorvastatin vs pravastatin): 0.5404
OR (rs2656822 allele T (A1), ADD, Imputed, atorvastatin vs pravastatin): 0.9033
OR (rs2656823 allele G (A1), ADD, Imputed, atorvastatin vs pravastatin): 0.9033
OR (rs2656825 allele T (A1), ADD, Imputed, atorvastatin vs pravastatin): 0.986
OR (rs2764766 allele C (A1), REC, Imputed, atorvastatin vs pravastatin): 3.069
OR (rs2793101 allele T (A1), ADD, Imputed, atorvastatin vs pravastatin): 1.081
OR (rs2793101 allele T (A1), DOM, Imputed, atorvastatin vs pravastatin): 1.046
OR (rs2795871 allele A (A1), ADD, Imputed, atorvastatin vs pravastatin): 0.5722
OR (rs2795886 allele A (A1), ADD, Imputed, atorvastatin vs pravastatin): 0.5272
OR (rs2795886 allele A (A1), DOM, Imputed, atorvastatin vs pravastatin): 0.5272
OR (rs2870464 allele G (A1), DOM, Imputed, atorvastatin vs pravastatin): 1.969
OR (rs2875528 allele T (A1), DOM, Imputed, atorvastatin vs pravastatin): 0.8843
OR (rs2876227 allele C, ADD, Imputed, atorvastatin vs pravastatin): 1.389
OR (rs2921983 allele C, ADD, Imputed, atorvastatin vs pravastatin): 0.8945
OR (rs2987537 allele C, DOM, Imputed, atorvastatin vs pravastatin): 1.58
OR (rs2996416 allele C, ADD, Imputed, atorvastatin vs pravastatin): 1.725
OR (rs2996416 allele C, DOM, Imputed, atorvastatin vs pravastatin): 1.754
OR (rs3015527 allele C, ADD, Imputed, atorvastatin vs pravastatin): 1.884
OR (rs3015527 allele C, DOM, Imputed, atorvastatin vs pravastatin): 1.945
OR (rs3015530 allele C, ADD, Imputed, atorvastatin vs pravastatin): 1.725
OR (rs3015530 allele C, DOM, Imputed, atorvastatin vs pravastatin): 1.754
OR (rs3015531 allele T, ADD, Imputed, atorvastatin vs pravastatin): 1.725
OR (rs3015531 allele T, DOM, Imputed, atorvastatin vs pravastatin): 1.754
OR (rs3015535 allele C, ADD, Imputed, atorvastatin vs pravastatin): 1.725
OR (rs3015535 allele C, DOM, Imputed, atorvastatin vs pravastatin): 1.754
OR (rs3019407 allele A, REC, Imputed, atorvastatin vs pravastatin): 1.025
OR (rs3756154 allele C, DOM, Imputed, atorvastatin vs pravastatin): 0.5162
OR (rs3793044 allele C, ADD, Imputed, atorvastatin vs pravastatin): 1.091
OR (rs3793053 allele C, ADD, Imputed, atorvastatin vs pravastatin): 0.995
OR (rs3793053 allele C, DOM, Imputed, atorvastatin vs pravastatin): 0.9919
OR (rs3796246 allele G, ADD, Imputed, atorvastatin vs pravastatin): 0.9554
OR (rs3796246 allele G, DOM, Imputed, atorvastatin vs pravastatin): 0.9829
OR (rs3805996 allele G, ADD, Imputed, atorvastatin vs pravastatin): 1.042
OR (rs3805996 allele G, DOM, Imputed, atorvastatin vs pravastatin): 1.106
OR (rs3806003 allele A, ADD, Imputed, atorvastatin vs pravastatin): 1.091
OR (rs3806004 allele T, ADD, Imputed, atorvastatin vs pravastatin): 0.9899
OR (rs3806004 allele T, DOM, Imputed, atorvastatin vs pravastatin): 0.982
OR (rs3806010 allele T, ADD, Imputed, atorvastatin vs pravastatin): 0.9899
OR (rs3806010 allele T, DOM, Imputed, atorvastatin vs pravastatin): 0.982
OR (rs3806014 allele T, ADD, Imputed, atorvastatin vs pravastatin): 1.014
OR (rs3806014 allele T, DOM, Imputed, atorvastatin vs pravastatin): 1.002
OR (rs3806015 allele A, ADD, Imputed, atorvastatin vs pravastatin): 1.004
OR (rs3806015 allele A, DOM, Imputed, atorvastatin vs pravastatin): 0.9945
OR (rs3806018 allele A, ADD, Imputed, atorvastatin vs pravastatin): 0.9899
OR (rs3806018 allele A, DOM, Imputed, atorvastatin vs pravastatin): 0.982
OR (rs3806019 allele A, ADD, Imputed, atorvastatin vs pravastatin): 0.974
OR (rs3806019 allele A, DOM, Imputed, atorvastatin vs pravastatin): 0.9676
OR (rs3806024 allele T, ADD, Imputed, atorvastatin vs pravastatin): 1.029
OR (rs3806024 allele T, DOM, Imputed, atorvastatin vs pravastatin): 1.001
